Source: article PMC4007472

Target: Human plasma fibronectin (Fn) (human)
Assay: adherence of bacteria to coated wells (crystal violet); human plasma Fn immobilised on ELISA wells, ~10^8 washed S. aureus cells expressing FnBPA constructs, 1 h 37 °C, without or with a range of concentrations of human Fg; only the target purified

B1: Intact FnBPA (with FnBRs 1–11), expressed on S. aureus (protein, UniProt P14738 37-985)
chain: ASEQKTTTVEENGNSATDNKTSETQTTATNVNHIEETQSYNATVTEQPSNATQVTTEEAPKAVQAPQTAQPANIETVKEEVVKEEAKPQVKETTQSQDNSGDQRQVDLTPKKATQNQVAETQVEVAQPRTASESKPRVTRSADVAEAKEASNAKVETGTDVTSKVTVEIGSIEGHNNTNKVEPHAGQRAVLKYKLKFENGLHQGDYFDFTLSNNVNTHGVSTARKVPEIKNGSVVMATGEVLEGGKIRYTFTNDIEDKVDVTAELEINLFIDPKTVQTNGNQTITSTLNEEQTSKELDVKYKDGIGNYYANLNGSIETFNKANNRFSHVAFIKPNNGKTTSVTVTGTLMKGSNQNGNQPKVRIFEYLGNNEDIAKSVYANTTDTSKFKEVTSNMSGNLNLQNNGSYSLNIENLDKTYVVHYDGEYLNGTDEVDFRTQMVGHPEQLYKYYYDRGYTLTWDNGLVLYSNKANGNEKNGPIIQNNKFEYKEDTIKETLTGQYDKNLVTTVEEEYDSSTLDIDYHTAIDGGGGYVDGYIETIEETDSSAIDIDYHTAVDSEAGHVGGYTESSEESNPIDFEESTHENSKHHADVVEYEEDTNPGGGQVTTESNLVEFDEESTKGIVTGAVSDHTTVEDTKEYTTESNLIELVDELPEEHGQAQGPVEEITKNNHHISHSGLGTENGHGNYDVIEEIEENSHVDIKSELGYEGGQNSGNQSFEEDTEEDKPKYEQGGNIVDIDFDSVPQIHGQNKGNQSFEEDTEKDKPKYEHGGNIIDIDFDSVPHIHGFNKHTEIIEEDTNKDKPSYQFGGHNSVDFEEDTLPKVSGQNEGQQTIEEDTTPPIVPPTPPTPEVPSEPETPTPPTPEVPSEPETPTPPTPEVPSEPETPTPPTPEVPAEPGKPVPPAKEEPKKPSKPVEQGKVVTPVIEINEKVKAVAPTKKPQSKKSELPET
In the case of B1, the binding is reported as “binds”.

These are yes or no findings as the source states them, for the method shown. Binding can be weak; no strength is given.
